Assay results reported in patent publication US9732078B2, “Therapeutic use of imidazopyridine derivatives” (SANOFI, priority 2012, dated 2017).
Some results were stated once for a whole list of compounds, not compound by compound.

How the values were obtained:
[1] = tested on: TCC97-7 bladder cancer cells carrying the Ser249Cys mutation of FGF receptor 3; test: Reduction of intracellular ATP content of TCC97-7 cells (Cell Titer-Glo, 3 days, serum-supplemented medium); type: cell-based; details: at the doses of 1, 10 or 30 μM
Protocol: Evaluation of the Capacity of the FGF-R Antagonists to Reduce the ATP Content of TCC97-7 Bladder Cancer Cells Carrying the Ser249Cys Mutation of FGF Receptor 3, Cultured in a Serum-Supplemented Medium
To do this, 3000 cells are seeded in 50 μl of complete medium (Ham-F/12, 1% FCS, […], non-essential amino acids, sodium pyruvate, 1% insulin/transferrin/selenium, hydrocortisone). 16 hours later, 50 μl of the various compounds are added at 0.2, 2, 20 and 60 μM after dilution in complete culture medium in order to obtain final concentrations of 0.1, 1, 10 and 30 μM. After 3 days, the ATP content of the cells is measured using the Cell Titer-Glo® Luminescent Cell Viability Assay kit (Promega, France) according to the supplier's recommendations. The percentage inhibition of the amount of intracellular ATP is calculated by considering the ATP content of the cells cultured in the absence of antagonist to be 0% inhibition. 100% inhibition would correspond to a well in which the ATP content is zero.

[2] = tested on: TCC97-7 bladder cancer tumour cells carrying the Ser249Cys mutation of FGF receptor 3; test: Inhibition of serum-induced proliferation of TCC97-7 bladder cancer cells (count of Hoechst 33342-labelled nuclei after 3 days); type: cell-based; details: at the doses of 0.1, 1 or 10 μM
Protocol: To do this, 2000 cells are seeded in the morning in 50 μl of complete medium (Ham-F/12, 1% FCS, 2 mM glutamine, non-essential amino acids, sodium pyruvate, 1% insulin/transferrin/selenium, hydrocortisone). In the evening, 50 μl of the various compounds are added at 0.02, 0.2, 2 or 20 μM after dilution in complete culture medium in order to obtain final concentrations of 0.01, 0.1, 1 and 10 μM. After 3 days, the cell proliferation is evaluated by measuring the number of nuclei at the bottom of each well corresponding to a number of cells. The nuclei are detected by means of labelling with Hoechst 33342 (Invitrogen, ref H3570). 100 μl of Hoechst 33342 diluted to 1/5000th in PBS are added to each well for 30 min at ambient temperature on non-fixed cells. The nuclei are detected by fluorescence at 350 nm at ×2 magnification with an Operetta (PerkinElmer) using the Acapella (PerkinElmer) imaging software and analysed using the Columbus (PerkinElmer) image analysis software. The percentage inhibition of the cell proliferation is calculated by considering the number of nuclei present in the wells in which the TCC97-7 cells are cultured in the absence of FGF-R antagonists to be 0% inhibition. 100% inhibition would correspond to a well no longer containing cells.

Row | SMILES | inhibiting the amount of intracellular ATP in the TCC97-7 cells [1] | inhibiting the proliferation of the TCC97-7 cells [2]
1 | Cn1c(=O)n(Cc2ccc(F)cc2)c(=O)c2cc(C(=O)c3nc(-c4cccc(C(=O)[O-])c4)c4ccccn34)ccc21.[Na+] [compound 49, Sodium salt of 3-(3-{[3-(4-fluorobenzyl)-1-methyl-2,4-dioxo-1,2,3,4-tetrahydroquinazolin-6-yl]carbonyl}imidazo[1,5-a]pyridin-1-yl)benzoic acid] | more than 20% | more than 20%
2 | CCCn1c(=O)n(CCOc2ccc(F)cc2)c(=O)c2cc(C(=O)c3nc(-c4cccc(C(=O)[O-])c4)c4ccccn34)ccc21.[Na+] [compound 221, Sodium salt of 3-[3-({3-[2-(4-fluorophenoxy)ethyl]-1-propyl-2,4-dioxo-1,2,3,4-tetrahydroquinazolin-6-yl}carbonyl)imidazo[1,5-a]pyridin-1-yl]benzoic acid] | more than 20% | more than 20%
